Assay results as given in the supplement of paper PMC10849652.
This is one part of the list.

The chains behind the UniProt entries cited, without tags or fusion partners. Where a name states a change or a piece, a line headed by the entry shows the natural chain unless it says otherwise.
UniProt Q9BX10: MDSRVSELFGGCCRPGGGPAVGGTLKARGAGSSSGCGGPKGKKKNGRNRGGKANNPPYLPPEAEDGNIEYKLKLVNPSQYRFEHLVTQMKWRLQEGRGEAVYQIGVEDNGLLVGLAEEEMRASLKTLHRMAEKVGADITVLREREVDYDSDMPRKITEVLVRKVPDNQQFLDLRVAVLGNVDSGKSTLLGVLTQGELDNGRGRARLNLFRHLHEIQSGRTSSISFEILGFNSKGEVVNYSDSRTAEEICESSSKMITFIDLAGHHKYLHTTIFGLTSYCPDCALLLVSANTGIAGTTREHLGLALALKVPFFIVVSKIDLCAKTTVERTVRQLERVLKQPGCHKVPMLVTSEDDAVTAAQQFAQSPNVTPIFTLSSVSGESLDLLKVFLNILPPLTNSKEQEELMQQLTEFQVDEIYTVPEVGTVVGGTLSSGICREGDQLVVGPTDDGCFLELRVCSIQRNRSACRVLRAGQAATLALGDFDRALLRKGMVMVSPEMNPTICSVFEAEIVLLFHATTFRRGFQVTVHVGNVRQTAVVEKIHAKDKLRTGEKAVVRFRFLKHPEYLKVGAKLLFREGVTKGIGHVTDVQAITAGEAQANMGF
UniProt Q13322: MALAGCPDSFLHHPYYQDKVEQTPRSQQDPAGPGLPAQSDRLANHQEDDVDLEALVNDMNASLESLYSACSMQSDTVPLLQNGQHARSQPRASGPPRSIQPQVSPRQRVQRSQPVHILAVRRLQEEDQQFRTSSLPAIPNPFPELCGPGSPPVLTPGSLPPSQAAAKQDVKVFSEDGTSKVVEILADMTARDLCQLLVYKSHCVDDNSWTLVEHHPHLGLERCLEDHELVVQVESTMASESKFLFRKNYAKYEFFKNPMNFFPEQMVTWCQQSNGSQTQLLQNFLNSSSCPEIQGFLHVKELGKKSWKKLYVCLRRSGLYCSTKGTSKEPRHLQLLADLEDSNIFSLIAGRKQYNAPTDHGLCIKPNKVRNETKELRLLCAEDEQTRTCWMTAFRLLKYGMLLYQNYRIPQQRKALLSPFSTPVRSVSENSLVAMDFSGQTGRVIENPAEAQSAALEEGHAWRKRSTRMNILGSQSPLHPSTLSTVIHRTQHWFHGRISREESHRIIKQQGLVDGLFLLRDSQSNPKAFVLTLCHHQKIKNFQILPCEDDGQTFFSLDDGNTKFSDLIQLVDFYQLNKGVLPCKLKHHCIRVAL
UniProt Q03013: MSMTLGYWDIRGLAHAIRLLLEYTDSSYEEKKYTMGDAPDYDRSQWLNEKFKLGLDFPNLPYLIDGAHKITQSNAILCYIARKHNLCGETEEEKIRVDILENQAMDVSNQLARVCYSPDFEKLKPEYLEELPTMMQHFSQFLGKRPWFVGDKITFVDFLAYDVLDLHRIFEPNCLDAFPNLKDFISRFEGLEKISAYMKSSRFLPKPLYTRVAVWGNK
UniProt Q7Z4V5: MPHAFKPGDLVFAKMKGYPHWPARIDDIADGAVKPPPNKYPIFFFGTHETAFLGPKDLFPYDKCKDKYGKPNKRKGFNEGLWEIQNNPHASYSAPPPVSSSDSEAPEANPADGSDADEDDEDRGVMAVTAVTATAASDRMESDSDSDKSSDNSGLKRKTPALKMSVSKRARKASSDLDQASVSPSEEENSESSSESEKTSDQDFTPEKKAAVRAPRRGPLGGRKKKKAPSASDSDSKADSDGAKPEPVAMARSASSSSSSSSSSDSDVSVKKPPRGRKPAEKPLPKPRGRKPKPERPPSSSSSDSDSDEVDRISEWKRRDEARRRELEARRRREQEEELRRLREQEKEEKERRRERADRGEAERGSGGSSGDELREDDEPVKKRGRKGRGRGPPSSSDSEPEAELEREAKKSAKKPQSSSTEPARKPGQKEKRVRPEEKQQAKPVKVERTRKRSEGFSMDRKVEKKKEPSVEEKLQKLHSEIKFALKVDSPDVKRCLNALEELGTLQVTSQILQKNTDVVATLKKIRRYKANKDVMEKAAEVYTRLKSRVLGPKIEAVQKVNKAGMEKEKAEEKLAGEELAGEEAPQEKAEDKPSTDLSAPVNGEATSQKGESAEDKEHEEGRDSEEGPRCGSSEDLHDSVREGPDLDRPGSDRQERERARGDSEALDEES
UniProt P28161: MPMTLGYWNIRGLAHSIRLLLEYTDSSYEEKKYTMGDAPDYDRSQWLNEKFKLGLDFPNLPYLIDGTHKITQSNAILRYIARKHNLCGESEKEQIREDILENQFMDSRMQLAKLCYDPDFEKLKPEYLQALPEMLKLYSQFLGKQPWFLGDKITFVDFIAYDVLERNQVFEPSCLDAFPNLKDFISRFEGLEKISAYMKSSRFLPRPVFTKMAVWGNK
UniProt Q92522: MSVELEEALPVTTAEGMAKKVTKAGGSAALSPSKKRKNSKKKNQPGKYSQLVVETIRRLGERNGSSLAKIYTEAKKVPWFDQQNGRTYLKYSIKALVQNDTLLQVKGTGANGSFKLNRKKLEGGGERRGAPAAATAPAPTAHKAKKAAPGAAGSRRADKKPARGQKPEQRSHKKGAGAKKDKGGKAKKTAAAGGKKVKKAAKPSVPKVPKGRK
UniProt P21266: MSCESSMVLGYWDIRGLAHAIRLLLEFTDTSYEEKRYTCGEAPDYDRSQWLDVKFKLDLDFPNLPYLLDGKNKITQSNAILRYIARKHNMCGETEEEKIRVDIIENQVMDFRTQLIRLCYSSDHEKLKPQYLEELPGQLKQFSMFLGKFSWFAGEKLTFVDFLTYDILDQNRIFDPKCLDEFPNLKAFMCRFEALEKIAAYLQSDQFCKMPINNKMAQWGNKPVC
UniProt P48637: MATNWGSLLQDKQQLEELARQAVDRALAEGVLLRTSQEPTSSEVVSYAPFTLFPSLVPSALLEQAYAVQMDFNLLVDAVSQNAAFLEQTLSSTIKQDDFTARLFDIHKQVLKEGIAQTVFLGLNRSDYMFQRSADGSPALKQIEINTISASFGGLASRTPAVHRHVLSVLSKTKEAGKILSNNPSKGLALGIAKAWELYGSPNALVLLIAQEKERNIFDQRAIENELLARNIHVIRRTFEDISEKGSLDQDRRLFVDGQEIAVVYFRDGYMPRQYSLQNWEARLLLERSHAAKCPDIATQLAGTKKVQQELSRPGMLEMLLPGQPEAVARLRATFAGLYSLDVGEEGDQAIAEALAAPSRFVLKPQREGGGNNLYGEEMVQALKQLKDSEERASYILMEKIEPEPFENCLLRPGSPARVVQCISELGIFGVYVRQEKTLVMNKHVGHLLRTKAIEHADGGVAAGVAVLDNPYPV
UniProt P02042: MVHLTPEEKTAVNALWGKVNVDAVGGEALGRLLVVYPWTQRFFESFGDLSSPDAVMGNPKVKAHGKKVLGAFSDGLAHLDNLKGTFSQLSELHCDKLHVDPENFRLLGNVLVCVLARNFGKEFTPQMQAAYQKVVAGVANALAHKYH
UniProt Q92664: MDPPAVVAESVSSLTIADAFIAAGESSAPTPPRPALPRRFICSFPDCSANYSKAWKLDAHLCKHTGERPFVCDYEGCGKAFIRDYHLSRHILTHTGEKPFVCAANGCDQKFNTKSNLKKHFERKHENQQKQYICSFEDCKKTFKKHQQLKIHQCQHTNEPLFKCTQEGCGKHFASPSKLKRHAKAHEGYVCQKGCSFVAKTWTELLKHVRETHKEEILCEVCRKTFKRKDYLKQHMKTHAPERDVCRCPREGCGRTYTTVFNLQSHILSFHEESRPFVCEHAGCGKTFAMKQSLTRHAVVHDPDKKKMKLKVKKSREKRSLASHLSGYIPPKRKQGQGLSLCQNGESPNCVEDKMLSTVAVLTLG
UniProt Q9UBQ7: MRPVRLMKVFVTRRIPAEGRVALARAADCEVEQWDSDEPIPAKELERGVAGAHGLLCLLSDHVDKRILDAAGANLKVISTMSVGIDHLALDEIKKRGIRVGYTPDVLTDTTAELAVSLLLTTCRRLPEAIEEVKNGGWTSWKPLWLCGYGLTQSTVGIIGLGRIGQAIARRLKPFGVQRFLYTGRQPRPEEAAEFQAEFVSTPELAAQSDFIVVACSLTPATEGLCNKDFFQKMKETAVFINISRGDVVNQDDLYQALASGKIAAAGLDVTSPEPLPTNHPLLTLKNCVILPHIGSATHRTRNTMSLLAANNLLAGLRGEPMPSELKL
UniProt Q92769, whole entry, looked up: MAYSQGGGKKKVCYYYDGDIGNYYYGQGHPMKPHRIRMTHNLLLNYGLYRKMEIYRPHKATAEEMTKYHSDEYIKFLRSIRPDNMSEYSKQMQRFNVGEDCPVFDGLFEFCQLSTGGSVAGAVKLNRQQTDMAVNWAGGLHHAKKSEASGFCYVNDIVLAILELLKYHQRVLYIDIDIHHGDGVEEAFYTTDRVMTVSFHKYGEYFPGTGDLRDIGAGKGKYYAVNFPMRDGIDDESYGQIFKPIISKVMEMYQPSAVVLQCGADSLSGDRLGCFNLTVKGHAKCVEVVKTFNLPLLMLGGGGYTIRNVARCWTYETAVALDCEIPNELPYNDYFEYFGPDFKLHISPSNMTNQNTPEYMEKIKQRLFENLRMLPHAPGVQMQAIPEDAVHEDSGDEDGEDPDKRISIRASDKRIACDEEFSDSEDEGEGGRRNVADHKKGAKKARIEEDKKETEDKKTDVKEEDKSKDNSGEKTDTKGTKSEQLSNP
UniProt P35269, whole entry, looked up: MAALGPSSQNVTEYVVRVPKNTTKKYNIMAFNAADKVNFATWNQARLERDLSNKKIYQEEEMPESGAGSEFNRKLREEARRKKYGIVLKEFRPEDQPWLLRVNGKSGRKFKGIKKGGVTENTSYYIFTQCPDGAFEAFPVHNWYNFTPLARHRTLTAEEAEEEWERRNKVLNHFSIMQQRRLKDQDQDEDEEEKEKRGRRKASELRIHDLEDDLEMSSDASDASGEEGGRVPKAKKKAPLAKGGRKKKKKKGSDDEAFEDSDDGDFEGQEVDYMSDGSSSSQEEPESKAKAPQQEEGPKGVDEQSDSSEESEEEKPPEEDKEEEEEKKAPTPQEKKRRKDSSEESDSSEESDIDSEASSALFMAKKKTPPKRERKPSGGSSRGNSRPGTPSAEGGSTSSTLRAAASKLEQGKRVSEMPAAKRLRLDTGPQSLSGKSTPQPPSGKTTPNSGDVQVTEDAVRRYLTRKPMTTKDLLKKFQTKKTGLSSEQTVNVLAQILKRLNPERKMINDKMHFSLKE
UniProt P02100: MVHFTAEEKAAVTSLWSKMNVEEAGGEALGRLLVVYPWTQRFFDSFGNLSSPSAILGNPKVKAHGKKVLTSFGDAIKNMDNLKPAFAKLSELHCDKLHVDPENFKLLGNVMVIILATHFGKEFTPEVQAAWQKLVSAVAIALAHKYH
UniProt P40939: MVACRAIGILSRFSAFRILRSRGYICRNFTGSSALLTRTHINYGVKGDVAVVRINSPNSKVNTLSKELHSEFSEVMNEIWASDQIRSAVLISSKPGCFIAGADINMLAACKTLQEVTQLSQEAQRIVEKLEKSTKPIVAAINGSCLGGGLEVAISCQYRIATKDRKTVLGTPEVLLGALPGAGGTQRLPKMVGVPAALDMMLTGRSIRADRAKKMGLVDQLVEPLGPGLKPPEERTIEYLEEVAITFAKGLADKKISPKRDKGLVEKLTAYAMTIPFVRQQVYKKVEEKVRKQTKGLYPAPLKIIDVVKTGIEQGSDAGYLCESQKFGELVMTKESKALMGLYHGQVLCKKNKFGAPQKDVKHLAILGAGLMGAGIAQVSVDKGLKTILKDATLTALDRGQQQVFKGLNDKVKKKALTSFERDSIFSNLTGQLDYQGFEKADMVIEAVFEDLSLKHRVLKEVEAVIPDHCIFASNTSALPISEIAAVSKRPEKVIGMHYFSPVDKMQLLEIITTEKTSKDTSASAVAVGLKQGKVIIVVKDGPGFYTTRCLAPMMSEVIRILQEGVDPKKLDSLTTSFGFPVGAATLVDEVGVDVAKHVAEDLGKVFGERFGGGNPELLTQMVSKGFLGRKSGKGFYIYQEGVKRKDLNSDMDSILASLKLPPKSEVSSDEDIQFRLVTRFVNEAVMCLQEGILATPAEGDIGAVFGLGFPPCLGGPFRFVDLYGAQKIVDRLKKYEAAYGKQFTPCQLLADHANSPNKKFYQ
UniProt P32780: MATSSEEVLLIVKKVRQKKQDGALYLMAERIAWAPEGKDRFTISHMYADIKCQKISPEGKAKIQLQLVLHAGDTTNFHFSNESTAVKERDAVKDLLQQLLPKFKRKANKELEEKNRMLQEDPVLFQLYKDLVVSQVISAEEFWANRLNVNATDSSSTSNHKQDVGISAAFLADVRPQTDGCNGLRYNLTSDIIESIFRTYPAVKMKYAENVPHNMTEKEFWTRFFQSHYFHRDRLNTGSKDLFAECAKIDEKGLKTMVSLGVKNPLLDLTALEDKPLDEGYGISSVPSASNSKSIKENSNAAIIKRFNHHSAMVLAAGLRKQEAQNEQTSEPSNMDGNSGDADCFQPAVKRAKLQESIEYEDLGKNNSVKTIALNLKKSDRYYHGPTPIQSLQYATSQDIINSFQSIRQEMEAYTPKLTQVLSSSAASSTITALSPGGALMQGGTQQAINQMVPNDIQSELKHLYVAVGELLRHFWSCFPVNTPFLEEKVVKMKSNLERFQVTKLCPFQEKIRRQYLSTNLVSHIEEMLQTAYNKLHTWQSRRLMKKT

Compound: C1=CC2=C(C=CC(=C2)/C=C\3/C(=O)NC(=NCC4=CC=CS4)S3)N=C1
Experiment: log2 fold change, soluble protein after heating vs DMSO (PISA); higher = thermal stabilisation; K562 lysate, 10 uM; active = over 0.2 and 3.5 SD of the protein, either way, in both replicates (recomputed)
How it was run: (§1)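 Dounce homogenisation of K562 pellets in PBS pH 7.4 with 1 mM MgCl2 produced a crude extract, used at 1 mg/mL protein. Exposure to 10 μM compound lasted 30 min, and aliquots were then heated for 3 min across 48°C-58°C, pooled and brought to 0.5% NP-40 at 4°C. The supernatant after 21,000xg for 90 min was quantified by TMTpro 16plex LC-MS/MS with channel sums equalised. Duplicate values are given as log-two fold change in thermal stability relative to solvent controls.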

log2 fold change, inactive:
GYPA (UniProt P02724) 0.061
GTPBP2 (UniProt Q9BX10) -0.002
HDAC7 isoform 5 (UniProt Q8WUI4) -0.013
H1-2 (UniProt P16403) 0.02
GRB10 (UniProt Q13322) 0.013
GSTM4 (UniProt Q03013) -0.026
HDHD5 (UniProt Q9BXW7) 0.07
GYG2 (UniProt O15488) -0.007
HAUS7 isoform 2 (UniProt Q99871) -0.005
HDGFL2 isoform 2 (UniProt Q7Z4V5) -0.008
GSTM2 (UniProt P28161) -0.007
GTSF1 (UniProt Q8WW33) 0.009
H1FX (UniProt Q92522) 0.019
GUF1 (UniProt Q8N442) 0
GTF3C6 (UniProt Q969F1) 0.014
GTF3C3 (UniProt Q9Y5Q9) 0.025
GSTM3 (UniProt P21266) 0.009
HAT1 (UniProt O14929) 0
GRSF1 (UniProt Q12849) -0.003
GSS (UniProt P48637) 0.006
HBD (UniProt P02042) 0.002
HDAC4 (UniProt P56524) -0.048
GTF3A (UniProt Q92664) -0.019
GTPBP4 (UniProt Q9BZE4) 0.044
GRHPR (UniProt Q9UBQ7) -0.008
HDAC2 (UniProt Q92769) 0.012
GSTZ1 (UniProt G3V4T6) -0.003
GTF2F1 (UniProt P35269) 0.001
HBE1 (UniProt P02100) 0.037
HADHA (UniProt P40939) 0.014
GTPBP1 (UniProt O00178) 0.014
GTF2H1 (UniProt P32780) -0.032

Compound: C1=CC2=NC=CN=C2C=C1/C=C/3\C(=O)NC(=O)S3
Experiment: as above
How it was run: as §1

log2 fold change, inactive:
GYPA (UniProt P02724) 0.059
GTPBP2 (UniProt Q9BX10) -0.011
HDAC7 isoform 5 (UniProt Q8WUI4) -0.021
H1-2 (UniProt P16403) -0.051
GRB10 (UniProt Q13322) -0.03
GSTM4 (UniProt Q03013) 0.141
HDHD5 (UniProt Q9BXW7) 0.022
GYG2 (UniProt O15488) 0.016
HAUS7 isoform 2 (UniProt Q99871) 0
HDGFL2 isoform 2 (UniProt Q7Z4V5) -0.03
GSTM2 (UniProt P28161) 0.079
GTSF1 (UniProt Q8WW33) -0.03
H1FX (UniProt Q92522) -0.056
GUF1 (UniProt Q8N442) -0.013
GTF3C6 (UniProt Q969F1) 0.029
GTF3C3 (UniProt Q9Y5Q9) 0
GSTM3 (UniProt P21266) 0.092
HAT1 (UniProt O14929) -0.028
GRSF1 (UniProt Q12849) 0.003
GSS (UniProt P48637) -0.007
HBD (UniProt P02042) -0.013
HDAC4 (UniProt P56524) -0.087
GTF3A (UniProt Q92664) -0.002
GTPBP4 (UniProt Q9BZE4) 0.008
GRHPR (UniProt Q9UBQ7) -0.009
HDAC2 (UniProt Q92769) -0.013
GSTZ1 (UniProt G3V4T6) 0.02
GTF2F1 (UniProt P35269) -0.04
HBE1 (UniProt P02100) 0.002
HADHA (UniProt P40939) -0.087
GTPBP1 (UniProt O00178) -0.007
GTF2H1 (UniProt P32780) -0.011

Compound: C1=CC=C(C=C1)C2=NC(=C(N2)C3=CC=NC=C3)C4=CC(=C(C=C4)Cl)O
Experiment: as above
How it was run: as §1

log2 fold change, inactive:
GYPA (UniProt P02724) 0.023
GTPBP2 (UniProt Q9BX10) 0.02
HDAC7 isoform 5 (UniProt Q8WUI4) -0.014
H1-2 (UniProt P16403) 0.026
GRB10 (UniProt Q13322) 0.016
GSTM4 (UniProt Q03013) 0.046
HDHD5 (UniProt Q9BXW7) -0.006
GYG2 (UniProt O15488) -0.012
HAUS7 isoform 2 (UniProt Q99871) 0.048
HDGFL2 isoform 2 (UniProt Q7Z4V5) 0.027
GSTM2 (UniProt P28161) -0.008
GTSF1 (UniProt Q8WW33) 0.016
H1FX (UniProt Q92522) -0.004
GUF1 (UniProt Q8N442) -0.008
GTF3C6 (UniProt Q969F1) 0.035
GTF3C3 (UniProt Q9Y5Q9) -0.005
GSTM3 (UniProt P21266) 0.031
HAT1 (UniProt O14929) 0.004
GRSF1 (UniProt Q12849) -0.014
GSS (UniProt P48637) -0.003
HBD (UniProt P02042) 0.025
HDAC4 (UniProt P56524) -0.01
GTF3A (UniProt Q92664) 0.02
GTPBP4 (UniProt Q9BZE4) 0.023
GRHPR (UniProt Q9UBQ7) -0.032
HDAC2 (UniProt Q92769) -0.004
GSTZ1 (UniProt G3V4T6) -0.043
GTF2F1 (UniProt P35269) -0.008
HBE1 (UniProt P02100) 0.005
HADHA (UniProt P40939) -0.003
GTPBP1 (UniProt O00178) 0.001
GTF2H1 (UniProt P32780) 0.003
